In patent US20190211057A1 one finds binding data, which are given here for 2 molecules.

Sequences of proteins named here, by UniProt entry; tags and fusion partners are left off. A change or cut given only in a name is not applied to a line headed by its entry.
UniProt P06756: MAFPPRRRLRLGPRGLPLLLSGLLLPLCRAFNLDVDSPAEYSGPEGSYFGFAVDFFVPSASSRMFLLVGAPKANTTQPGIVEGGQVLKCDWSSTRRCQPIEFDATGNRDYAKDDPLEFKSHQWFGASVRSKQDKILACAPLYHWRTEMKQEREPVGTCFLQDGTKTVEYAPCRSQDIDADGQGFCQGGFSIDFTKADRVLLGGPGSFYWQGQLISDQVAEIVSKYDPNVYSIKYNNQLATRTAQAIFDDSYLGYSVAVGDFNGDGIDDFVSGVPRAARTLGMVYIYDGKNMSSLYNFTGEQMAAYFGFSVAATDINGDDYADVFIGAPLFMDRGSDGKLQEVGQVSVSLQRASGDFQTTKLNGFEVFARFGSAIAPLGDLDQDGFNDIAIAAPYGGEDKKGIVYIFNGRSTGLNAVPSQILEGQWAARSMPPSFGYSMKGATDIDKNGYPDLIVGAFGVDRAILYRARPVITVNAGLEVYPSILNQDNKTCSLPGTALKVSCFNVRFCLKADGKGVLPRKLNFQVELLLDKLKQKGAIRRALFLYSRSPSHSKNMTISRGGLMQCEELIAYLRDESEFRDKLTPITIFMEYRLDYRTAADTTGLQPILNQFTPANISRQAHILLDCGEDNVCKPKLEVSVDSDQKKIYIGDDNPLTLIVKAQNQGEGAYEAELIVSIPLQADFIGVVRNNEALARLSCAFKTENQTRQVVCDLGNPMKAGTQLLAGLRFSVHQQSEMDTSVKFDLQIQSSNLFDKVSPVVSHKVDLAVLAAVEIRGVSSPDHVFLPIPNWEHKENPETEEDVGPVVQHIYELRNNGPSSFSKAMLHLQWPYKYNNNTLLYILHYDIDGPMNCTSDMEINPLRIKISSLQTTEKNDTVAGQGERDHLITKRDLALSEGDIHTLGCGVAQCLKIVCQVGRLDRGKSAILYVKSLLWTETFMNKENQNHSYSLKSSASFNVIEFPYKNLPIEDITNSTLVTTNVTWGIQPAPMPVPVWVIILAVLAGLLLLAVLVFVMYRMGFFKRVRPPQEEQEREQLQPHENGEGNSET

Where a chain is given by its changes, count along the chain named. Results are given in words; binding and its absence hold for the method and conditions named. Some binding calls cover weakened binding; strength is not graded here.

The experiment addresses integrin αvβ3 receptor (UniProt P06756). Kind of experiment: ELISA on αvβ3 integrin. For orientation: In an ELISA, binding on a coated surface is turned into a signal by an enzyme label.

B1: RGD4C-EcCD_WT (protein)
chain: MGCDCRGDCFCMSNNALQTIINARLPGEEGLWQIHLQDGKISAIDAQSGVMPITENSLDAEQGLVIPPFVEPHIHLDTTQTAGQPNWNQSGTLFEGIERWAERKALLTHDDVKQRAWQTLKWQIANGIQHVRTHVDVSDATLTALKAMLEVKQEVAPWIDLQIVAFPQEGILSYPNGEALLEEALRLRADVVGAIPHFEFTREYGVESLHKTFALAQKYDRLIDVHCDEIDDEQSRFVETVAALAHHEGMGARVTASHTTAMHSYNGAYTSRLFRLLKMSGINFVANPLVNIHLQGRFDTYPKRRGITRVKEMLESGINVCFGHDDVFDPWYPLGTANMLQVLHMGLHVCQLMGYGQINDGLNLITHHSARTLNLQDYGIAAGNSANLIILPAENGFDALRRQVPVRYSVRGGKVIASTQPAQTTVYLEQPEAIDYKRLEHHHHHH
Take B1: the binding entry is recorded as “binds”.

B2: RGD4C-EcCD_D314A (protein)
chain: B1 chain with D326A
B2: the binding result is “binds”.
